The experiment can be described thus: qHTS Assay for Lipid Storage Modulators in Drosophila S3 Cells.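 For cell number change: cells counted by Cell Tracker Red CMTPX staining in the red channel.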 Particulars: BODIPY lipid droplet fluorescence, 18-24 h; for cell number change: measured here: cell count max response, cells fed with added oleic acid. The method, boiled down: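 Drosophila S3 cells loaded with oleic acid (400 uM, as added) and compounds at several concentrations; lipid droplets imaged by 488-nm laser-scanning cytometry, 500–530 nm intensity and object ratio to cell channel. Percent activity normalized to 20 uM Triacsin C.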
A general note: qHTS replaces the single test concentration by a dilution series.

[1] abbreviates: measured here: lipid fluorescence (Fed channel) AC50, cells fed with added oleic acid.
Setting [2] is: measured here: cell number channel AC50, cells fed with added oleic acid.

The other results are listed elsewhere or left out. The main result of the screen is listed elsewhere. These columns were measured beside it and carry no call. The list favours compounds with an active or inconclusive main result. The note in brackets gives the kind of curve behind each potency; many fits are weak.

`CN(CCC#N)C(=O)CSc1nc2scc(-c3ccccc3)c2c(=O)[nH]1`: the cell number change turned out to be 12.3%. For the same compound, the AC50 (usually the concentration giving half of the maximal activity seen) under setting [1] is 5.17 µM [rising, full curve, poor fit].
Turning to `O=C(NCc1cccnc1)c1cccc2c1C(=O)N(Cc1cccnc1)C2`, the AC50 reads like this: under setting [2], 1.3 µM [rising, partial curve]; under setting [1], 3.26 µM [rising, partial curve].
For the compound `CCC(C)NC(=O)c1cc(-c2ccc(OC)cc2)on1` (configuration not stated), the cell number change came to 108%. Further, the AC50 under setting [2] is 9.2 µM [rising, partial curve]. In addition, the AC50 under setting [1] was 6.51 µM [rising, single point].
In the case of `COc1cc(C(=O)NCC(c2cccs2)N2CCOCC2)cc(OC)c1OC` (configuration not stated), the cell number change was -4.7%. For the same compound, under setting [1], the AC50 is 6.51 µM [rising, single point].
As for `CN(C)c1ccc(/C=N/Nc2ccc(-n3ccnc3)nn2)cc1`, the cell number change amounted to 38.7%. Also, the AC50 under setting [2] is 0.00461 µM [rising, full curve, poor fit].
Regarding `O=[N+]([O-])c1ccc(N/N=C/c2sc(N3CCOCC3)nc2-c2ccccc2)c(S(=O)(=O)Nc2ccc(Cl)cc2)c1`, the cell number change was 135%. The AC50 under setting [2] was 29.1 µM [rising, partial curve].
Regarding `c1ccc2c(c1)CNC1(CCCCC1)C2`, the cell number change was -165%. In addition, the AC50 under setting [2] was 25.9 µM [falling, partial curve]. For the same compound, under setting [1], the AC50 is 23.1 µM [falling, partial curve].
`COc1cc(/C=C2\SC(=Nc3ccc(Cl)c(C(=O)O)c3)NC2=O)c(Br)c(Br)c1O`: the cell number change is -41.5%. Further, the half-maximal activity concentration (AC50) under setting [1] is 0.58 µM [falling, single point].
As to `CCCC(C(=O)NCCC(C)C)N(Cc1ccccc1Cl)C(=O)c1snc(C(N)=O)c1N` (configuration not stated), the cell number change is -56.4%. Further, the AC50 under setting [2] was 10.3 µM [falling, partial curve]. The AC50 under setting [1] was 18.4 µM [falling, partial curve].
For `Cc1ccc(C)c(NC(=S)N/N=C/C(C)c2ccccc2)c1` (configuration not stated), the cell number change was 18.3%. The AC50 under setting [1] was 0.1 µM [rising, full curve, poor fit].
`CCOC(=O)c1c(C)c(C(=O)Nc2ccc(N(C)C)cc2)c(C)n1CC`: the cell number change was found to be 0.598%. Besides, the concentration at half-maximal activity (AC50) under setting [2] was 0.731 µM [rising, full curve, poor fit]. Under setting [1], the AC50 was 0.461 µM [rising, single point].
In the case of `COc1ccc(CCNC(=O)CNC(=O)c2ccc(Br)o2)cc1OC`, the cell number change is -51%. Besides, the AC50 under setting [2] was 23.1 µM [falling, partial curve, poor fit]. In addition, the concentration at half-maximal activity (AC50) under setting [1] was 23.1 µM [falling, partial curve].
Regarding `COC(=O)c1cc2c(ccn2-c2ccc(F)cc2)n1Cc1ccc(C#N)cc1`, the cell number change came out at 13.2%. In addition, the AC50 under setting [2] was 6.51 µM [rising, single point]. Moreover, under setting [1], the AC50 is 2.91 µM [falling, full curve].
Turning to `CC1CCN(C(=O)COc2ncnc3ccccc23)CC1`, the cell number change is -56%. For the same compound, the AC50 under setting [2] is 0.411 µM [falling, full curve]. For the same compound, the AC50 under setting [1] was 0.0146 µM [falling, full curve].
For `CCN(CC)C(=O)C(=O)Nc1cccc(Br)c1`, the cell number change was determined as 5.6%. Moreover, the half-maximal activity concentration (AC50) under setting [1] was 3.66 µM [falling, single point].
As for `COc1ccc(-n2nc(C(=O)NCC(=O)N3CCCCCC3)c3ccccc3c2=O)cc1`, the cell number change was 0.451%. Besides, the concentration at half-maximal activity (AC50) under setting [1] is 29.1 µM [falling, single point].
With `COc1ccc(Nc2nc(N3CCCC3)nc3ccccc23)c(OC)c1`, the cell number change was -188%.
Regarding `NC(=O)c1ccc(N2CCCCCC2)c([N+](=O)[O-])c1`, the cell number change is -70.6%. Besides, the AC50 under setting [2] was 20.6 µM [falling, single point].
For `COc1ccc(Cl)cc1S(=O)(=O)N1CCCC(C(=O)NCc2ccccc2)C1` (configuration not stated), the cell number change was -3.04%.
On to `COc1ccc(CCNc2ncnc3[nH]ncc23)cc1OC`, for which the cell number change was -48.5%. The AC50 under setting [2] was 23.1 µM [falling, partial curve, poor fit]. Under setting [1], the AC50 was 29.1 µM [falling, single point].
As for `O=C1CC(/C=C/c2cccnc2)=Nc2ccccc2N1`, the AC50 under setting [1] is 0.103 µM [rising, single point].
On to `O=c1c2cc(F)ccc2[nH]c(=S)n1Cc1ccc(F)cc1`, for which the cell number change came to 24.6%.
In the case of `COc1cc(S(=O)(=O)N2CCCC2)c(C)cc1C`, the cell number change is -43.8%. For the same compound, the AC50 under setting [2] was 29.1 µM [falling, single point].
For the compound `NC(=O)c1ccc(NC(=O)COC(=O)c2ccccc2Nc2ccccc2)cc1`, the cell number change was determined as 25.4%.
For `CCc1nc2ccc(C(=O)NCc3ccco3)cc2nc1CC`, the cell number change is 14.1%. The AC50 under setting [1] was 2.06 µM [rising, partial curve].
For `CCOC(=O)CC1COCCN1Cc1cn(C)nc1-c1ccccc1F` (configuration not stated), the cell number change is -8.92%. Further, the half-maximal activity concentration (AC50) under setting [1] was 1.3 µM [falling, partial curve].
With `O=C1CCN(S(=O)(=O)c2ccccc2)C2CCCCC12` (configuration not stated), the cell number change is -134%. The AC50 under setting [2] is 25.9 µM [falling, partial curve]. For the same compound, the AC50 under setting [1] was 23.1 µM [falling, partial curve].
In the case of `O=C1COc2ccc(C(=O)CSc3nnc(Cc4ccccc4)o3)cc2N1`, the cell number change came to 27.2%. Besides, the AC50 under setting [1] was 10.3 µM [rising, partial curve].
As for `Cc1nnc(NC(=O)CSc2nnc(NC(=O)C(C)(C)C)s2)s1`, the cell number change is -3.95%. In addition, the AC50 under setting [1] is 0.00517 µM [falling, full curve, poor fit].
As to `COc1ccc(CNC(=O)CSc2nnnn2-c2ccccc2)cc1`, the cell number change is 1.67%. The AC50 under setting [1] was 18.4 µM [rising, partial curve].
Consider `CCOc1ccc(-n2c(=O)c3sccc3n(CC(=O)NC3CCCCC3)c2=O)cc1`, for which the cell number change is 9.17%. Under setting [2], the AC50 was 3.66 µM [rising, single point].
For the compound `COc1cccc(N(CC(=O)NC2CCCCC2)C(=O)CCC(=O)Nc2nccs2)c1`, the cell number change worked out at 562%. Under setting [2], the AC50 was 20.6 µM [rising, partial curve]. Besides, the AC50 under setting [1] is 29.1 µM [rising, partial curve].
For `CC(=O)Nc1ccc(S(=O)(=O)NC2(C(F)(F)F)C(=O)Nc3c2c(=O)[nH]c(=O)n3Cc2ccco2)cc1` (configuration not stated), the cell number change amounted to 4.18%. Moreover, the AC50 under setting [1] was 0.146 µM [falling, full curve].
As for `CCCn1ccc2c(OCC(=O)Nc3ccc(NC(C)=O)cc3)cccc2c1=O`, the cell number change was -29.1%. For the same compound, under setting [2], the AC50 was 1.64 µM [falling, full curve, poor fit]. For the same compound, the AC50 under setting [1] was 29.1 µM [falling, single point].
With `Cc1cc(SCC2=NNC(=O)C2)c(Cl)cc1Cl`, the cell number change came to 29.2%.
For `O=C(COc1cccnc1[N+](=O)[O-])NCc1ccc2c(c1)OCO2`, the cell number change worked out at 10.2%. In addition, under setting [1], the AC50 is 3.26 µM [rising, partial curve].

The record behind these values is PubChem BioAssay AID2685 (National Center for Advancing Translational Sciences (NCATS), 2010).
